According to patent publication US9272016B2, “Methods to enhance RNAi oligonucleotide delivery to respiratory epithelial cells” (University of Iowa Research Foundation, priority 2012, dated 2016):
For some of these results: For at least one compound, name, drawing or mass did not settle the structure. Some results were stated once for a whole list of compounds, not compound by compound. d = 2'-deoxy (DNA); r = 2'-OH (RNA); {P} = phosphate

Legend:
[1] = system: HPRT mRNA; assay: Pretreatment of well-differentiated human airway epithelia before HPRT siRNA transfection, qPCR; format: cell-based; conditions: 6 h drug pretreatment at Cmap or literature concentration, then siRNA-Transductin 24 h (data not shown)
Experimental: (§1) For airway epithelia that were either well or poorly differentiated, transfection was done mostly according to the manufacturer's protocol. In all cases, the apical surface of epithelia was washed twice with PBS before adding the transfection mixture to the apical surface. The mixture was then left on the cells for 24 h for all transfection reagents. For PK1 cells, reverse transfection was performed in a 48-well plate by first adding the siRNA-RNAiMAX reagent mixture onto the plate and then adding the dispersed cells (40,000 cells) on top of the mixture and allowing the cells to adhere and establish growth for 24 h. […]
(§2) Total RNA was isolated using SV96 RNA isolation kit (Promega), according to manufacturer's protocol. […] One-fifteenth of the cDNA was then amplified and analyzed by Taqman assay in the 7900 Real Time PCR System (Applied Biosystems) using synthesized primer-probe pairs (IDT, Coralville, Iowa), reaction buffer and Immolase DNA polymerase (Bioline, Taunton, Mass.). […] Absolute quantification of an mRNA target sequence within an unknown sample was determined by reference to a standard curve. […]
(§3) Wortmannin was purchased from Sigma (St. Louis, Mo.) as a ready to use solution. […]

[2] = system: HPRT mRNA; assay: Pretreatment of well differentiated pig airway epithelia before HPRT siRNA transfection, qPCR; format: cell-based; conditions: 6 h drug pretreatment at Cmap or literature concentration, then siRNA-Transductin 24 h (data not shown)
Experimental: as §1, §2, §3

[3] = system: IL-8; assay: Dicer-substrate siRNA silencing in PK1 cells, qPCR of IL-8 mRNA; format: cell-based, pig; conditions: reverse transfection with RNAiMAX, 1 nM and 10 nM siRNA, 24 h, vs nontargeting control NC1

Molecule | reduction in HPRT mRNA levels [1] | reduction in HPRT mRNA levels [2] | decrease of targeting mRNA (IL-8) [3]
COC(=O)C1=C(C)NC(C)=C(C(=O)OC)C1c1ccccc1[N+](=O)[O-] [nifedipine] | no reduction | no reduction | 
IL-8 1098: Dicer-substrate siRNA against pig IL-8, SEQ ID NO: 5 and 6 (chain 1 GGCAAAUUGUUAAACGAACAGAATA; chain 2 UAUUCUGUUCGUUUAACAAUUUGCCAA; chain 1: sugars from the 5' end r23 d2, 5' {P}, backbone not given here; chain 2: RNA, backbone not given here) |  |  | more than 90%
IL-8 1466: Dicer-substrate siRNA against pig IL-8, SEQ ID NO: 7 and 8 (chain 1 UGAGUGUAACUAUAGAACAUUUACA; chain 2 UGUAAAUGUUCUAUAGUUACACUCACA; chain 1: sugars from the 5' end r23 d2, 5' {P}, backbone not given here; chain 2: RNA, backbone not given here) |  |  | more than 90%
